The experiment addresses eukaryotic translation initiation factor 3 (eIF3) subunit b (human (endogenous in HEK293FT)) (UniProt P55884). The experiment in a line: co-IP; endogenous eIF3 complex immunopurified from extracts of HEK293FT cells cross-linked with 0.2% formaldehyde; anti-eIF3b antibody (Bethyl A301-761A) on protein A uMACS magnetic beads; Lysis Buffer 50 mM Tris-HCl pH 8, 150 mM NaCl, 1% Triton X-100; four washes, elution in Laemmli buffer, Western blotting; control without antibody.

Sequences of proteins named here, by UniProt entry; tags and fusion partners are left off.
UniProt P55884: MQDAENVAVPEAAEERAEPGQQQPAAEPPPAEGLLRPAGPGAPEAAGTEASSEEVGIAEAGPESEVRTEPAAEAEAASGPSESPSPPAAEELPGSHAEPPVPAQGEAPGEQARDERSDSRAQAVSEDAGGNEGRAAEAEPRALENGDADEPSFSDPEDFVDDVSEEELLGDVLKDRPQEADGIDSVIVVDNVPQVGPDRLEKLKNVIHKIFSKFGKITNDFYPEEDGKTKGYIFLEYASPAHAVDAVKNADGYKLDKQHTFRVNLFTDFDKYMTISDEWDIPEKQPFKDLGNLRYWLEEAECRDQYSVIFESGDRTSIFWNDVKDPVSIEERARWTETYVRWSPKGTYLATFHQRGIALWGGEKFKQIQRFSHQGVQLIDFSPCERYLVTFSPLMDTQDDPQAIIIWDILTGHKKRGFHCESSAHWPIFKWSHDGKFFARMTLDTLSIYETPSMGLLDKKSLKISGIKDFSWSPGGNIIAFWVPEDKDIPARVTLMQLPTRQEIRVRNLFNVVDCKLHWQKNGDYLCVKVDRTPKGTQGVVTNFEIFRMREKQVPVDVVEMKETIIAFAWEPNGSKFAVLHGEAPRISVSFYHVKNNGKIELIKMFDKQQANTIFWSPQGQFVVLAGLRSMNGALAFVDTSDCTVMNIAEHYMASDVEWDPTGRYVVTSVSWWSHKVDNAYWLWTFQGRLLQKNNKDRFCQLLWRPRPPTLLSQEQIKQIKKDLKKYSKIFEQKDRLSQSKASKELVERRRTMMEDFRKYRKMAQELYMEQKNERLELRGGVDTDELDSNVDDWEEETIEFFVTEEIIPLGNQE
UniProt O15371: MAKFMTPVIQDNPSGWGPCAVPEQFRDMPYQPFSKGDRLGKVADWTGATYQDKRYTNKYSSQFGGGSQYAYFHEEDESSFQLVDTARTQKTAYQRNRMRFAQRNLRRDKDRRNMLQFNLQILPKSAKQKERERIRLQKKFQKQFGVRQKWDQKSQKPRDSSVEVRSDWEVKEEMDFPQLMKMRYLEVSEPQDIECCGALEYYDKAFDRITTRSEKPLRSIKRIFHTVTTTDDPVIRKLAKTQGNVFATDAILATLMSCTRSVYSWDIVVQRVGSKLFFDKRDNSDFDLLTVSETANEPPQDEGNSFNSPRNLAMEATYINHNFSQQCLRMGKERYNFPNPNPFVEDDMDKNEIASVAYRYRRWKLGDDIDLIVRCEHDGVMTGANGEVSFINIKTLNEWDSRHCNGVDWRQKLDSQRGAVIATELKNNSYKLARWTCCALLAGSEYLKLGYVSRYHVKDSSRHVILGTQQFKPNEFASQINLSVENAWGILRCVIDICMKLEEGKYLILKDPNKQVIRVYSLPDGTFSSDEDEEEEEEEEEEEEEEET
UniProt Q9UBQ5: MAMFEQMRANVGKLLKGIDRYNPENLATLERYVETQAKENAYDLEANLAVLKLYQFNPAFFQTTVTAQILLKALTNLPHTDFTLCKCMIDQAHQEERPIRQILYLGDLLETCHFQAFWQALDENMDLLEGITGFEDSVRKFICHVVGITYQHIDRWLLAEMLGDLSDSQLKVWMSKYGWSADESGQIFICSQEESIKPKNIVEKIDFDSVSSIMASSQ

No constants are given. Whether binding was seen depends on the method and setting. Binding seen in cells or lysates may run through a third protein. Some entries that bind do so weakly or less than the wild type.

Turning to “eukaryotic translation initiation factor 3 (eIF3) subunit d (from UniProt O15371 1-548)”, the binding entry is on record as “binds”.
With “eukaryotic translation initiation factor 3 (eIF3) subunit k (from UniProt Q9UBQ5 1-218)”, the binding entry is “binds”.

Source of the values: publication PMC9496622.
